PubChem BioAssay AID1224826, NIAID, 2016

Test: 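Regulators of Tlr4 signalling leading to Tnf-alpha expression in macrophages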 (primary screen)
Cells: RAW264.7 G9 macrophages from mouse bearing reporters for p65 (GFP) and the Tnf promoter (mCherry)
Knock-down reagent: siRNA pool against mouse genes, 100 nM
Timing: 16 h of LPS stimulation, after 2 days of siRNA transfection
Challenge: bacterial lipopolysaccharide (Salmonella minnesota R595), 10 ng/ml
Read-out: 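Imaged Tnf reporter mCherry in nuclei, minus background, normalised per plate to the median and expressed as robust z-scores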
Scale: Tnf reporter robust z-score: higher = stronger Tnf promoter reporter signal after LPS
Active means: 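Called active when robust z-score is at most -1.3, matching the median of the Tlr4 knock-down control, or over 3; control wells and wells with under 50 cells never active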
Meaning of the calls: active = Tnf reporter clearly lowered or raised; inactive = no clear change in Tnf reporter
In all, the deposit lists about 17,000 reagents; this is an unselected part. About 1,110 of them (6.6%) count as active. 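Active means lowered or raised reporter signal; replicate intensities are raw and not normalised per plate.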 A number with no mark means an inactive call. Not all columns of the deposit are shown.

Knock-down of Obsl1 resulted in: Tnf reporter robust z-score -0.94; fewer than 50 cells in well enough cells in well. With knock-down of Corin, the record shows Tnf reporter robust z-score 1; fewer than 50 cells in well enough cells in well. Prss33 showed Tnf reporter robust z-score -1.85 (active); fewer than 50 cells in well enough cells in well. Ift38 scored fewer than 50 cells in well fewer than 50 cells per well; well left out of calls. With knock-down of Or52ad1, the record shows fewer than 50 cells in well fewer than 50 cells per well; well left out of calls. Emcn scored Tnf reporter robust z-score -1.47 (active); fewer than 50 cells in well enough cells in well.

Against Uox the deposit lists fewer than 50 cells in well fewer than 50 cells per well; well left out of calls. Silencing of Stard4 came out at: Tnf reporter robust z-score 2.3; fewer than 50 cells in well enough cells in well. With knock-down of Kif9, the screen gave Tnf reporter robust z-score -0.3; fewer than 50 cells in well enough cells in well.

Reagents above with an active call (2):
Prss33 — Tnf reporter robust z-score: -1.85 (active); fewer than 50 cells in well: enough cells in well
Emcn — Tnf reporter robust z-score: -1.47 (active); fewer than 50 cells in well: enough cells in well

Next results follow.
After knock-down of Sh3tc1 the results were Tnf reporter robust z-score -0.7; fewer than 50 cells in well enough cells in well. Antxrl showed Tnf reporter robust z-score -0.54; fewer than 50 cells in well enough cells in well. Gsdma2 showed fewer than 50 cells in well fewer than 50 cells per well; well left out of calls. Depletion of Hyal5 came out at: Tnf reporter robust z-score -0.48; fewer than 50 cells in well enough cells in well. Trip6 gave Tnf reporter robust z-score -0.1; fewer than 50 cells in well enough cells in well.
